# Laboratory results as given in PubChem BioAssay AID2685 (National Center for Advancing Translational Sciences (NCATS), 2010).
# Some of the results follow. These are further read-outs of the screen, such as a control signal, another cell line or another target. No call is given for them. The list favours compounds with an active or inconclusive main result. The note in brackets gives the kind of curve behind each potency; many fits are weak.
# Experiment: qHTS Assay for Lipid Storage Modulators in Drosophila S3 Cells;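 on cell number change: cells counted by Cell Tracker Red CMTPX staining in the red channel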
# Settings: BODIPY lipid droplet fluorescence, 18-24 h; for cell number change: measured here: cell count max response, cells fed with added oleic acid
# Procedure, shortened: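 Drosophila S3 cells loaded with oleic acid (400 uM, as added) and compounds at several concentrations; lipid droplets imaged by 488-nm laser-scanning cytometry, 500–530 nm intensity and object ratio to cell channel. Percent activity normalized to 20 uM Triacsin C.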
# [1] = measured here: lipid fluorescence (Fed channel) AC50, cells fed with added oleic acid
# [2] = measured here: cell number channel AC50, cells fed with added oleic acid
SMILES,cell number change,AC50 [1],AC50 [2]
Cc1ccc(N/C=C/C(=O)c2ccccc2)cc1C,2.92%,"10.3 µM [rising, partial curve]",–
Cc1ccc(N2C(=O)[C@@H]3C(C(=O)C(c4ccccc4)c4ccccc4)=NN[C@@H]3C2=O)cc1,6.27%,"6.51 µM [rising, single point]",–
Cn1c(-c2ccc(F)cc2)cnc1SCC(=O)Nc1ccccc1N1CCOCC1,109%,"2.59 µM [rising, full curve]","2.59 µM [rising, full curve]"
Cc1ccc(-c2nnc(COc3cccc(-n4cnnn4)c3)o2)cc1,-18.9%,–,"0.461 µM [falling, full curve, poor fit]"
O=C(CSc1nncn1-c1ccccn1)Nc1cccc(Cl)c1,-6.25%,–,–
CCn1c(-c2ccccc2)csc1=Nc1ccc(O)cc1,-52.2%,"29.1 µM [falling, single point]","0.366 µM [falling, partial curve]"
COC(=O)CSc1nnc(-c2cccs2)n1-c1ccc(Cl)cc1,-111%,–,–
CCOC(=O)C1CCCN(CCC(=O)Nc2ccccc2)C1 (centres undefined),-28.5%,–,"0.00461 µM [falling, full curve, poor fit]"
COc1ccc(C2/C=C\CN(C(=O)C3CC3)[C@H](Cc3ccccc3)C(=O)N2Cc2ccc(F)cc2)cc1 (some centres undefined),-16.1%,"16.4 µM [falling, single point]",–
COc1ccc(CN(C)S(=O)(=O)c2nnc(NC(=O)c3cccc(C)c3)s2)cc1OC,-53.2%,"0.651 µM [falling, full curve]","0.0517 µM [falling, full curve, poor fit]"
CN(C)c1nc(OCCNC(=O)Nc2ccccc2)nc(N2CCOCC2)n1,4.98%,"1.64 µM [rising, partial curve]","0.164 µM [rising, full curve]"
CC1CCCN(C(=O)c2cc(S(=O)(=O)N3CCCCC3)c[nH]2)C1 (centres undefined),-2.99%,"1.16 µM [falling, partial curve]",–
O=C(CC1SC(N2CCCC2)=NC1=O)Nc1ccc(C(=O)N2CCCC(C(F)(F)F)C2)cc1 (centres undefined),24.2%,–,–
CC(C)C(=O)NC(Nc1cccc([N+](=O)[O-])c1)C(Cl)(Cl)Cl (centres undefined),-8.22%,–,–
Cc1cc(C#Cc2c(-c3ccccc3)n(C)c3ccccc23)ccc1F,33.7%,–,"13 µM [rising, partial curve]"
COc1cc([N+](=O)[O-])ccc1NC(=O)NCc1ccco1,-39.6%,–,–
COc1cc2cc(C(=O)N(C)Cc3ccccc3)[nH]c2cc1OC,41.5%,"29.1 µM [rising, single point]","6.51 µM [rising, single point]"
O=C(N/N=C\c1ccc(O)c([N+](=O)[O-])c1)c1ccccc1-n1cccc1,–,"18.4 µM [rising, single point]",–
Brc1ccc2c(c1)CN1CCCC1=N2,-1.39%,"0.092 µM [falling, full curve, poor fit]",–

# Quoted at random: 2 entries already listed
SMILES,cell number change,AC50 [1],AC50 [2]
Cc1ccc(N2C(=O)[C@@H]3C(C(=O)C(c4ccccc4)c4ccccc4)=NN[C@@H]3C2=O)cc1,6.27%,"6.51 µM [rising, single point]",–
COC(=O)CSc1nnc(-c2cccs2)n1-c1ccc(Cl)cc1,-111%,–,–

# (list continues)

SMILES,cell number change,AC50 [1],AC50 [2]
COc1ccc(C(CNC(=O)COc2ccccc2)N2CCOCC2)cc1 (centres undefined),-1.71%,"16.4 µM [rising, single point]",–
Cc1cc(C)c2nc(N(CCCN(C)C)C(=O)c3ccc4c(c3)CCCC4)sc2c1,-83.9%,–,"13 µM [falling, partial curve]"
COc1ccc(NS(=O)(=O)c2cccc(C(=O)NC3CCN(Cc4ccccc4)CC3)c2)cc1,8.65%,–,–
O=C1/C(=C\c2cccnc2)CN(Cc2ccccc2)C/C1=C\c1cccnc1,–,"2.06 µM [falling, full curve]",–
CC(=O)[C@@]1(O)CC[C@H]2[C@@H]3C[C@H](C)C4=CC(=O)C=C[C@]4(C)[C@@]3(F)[C@@H](O)C[C@@]21C,-7.21%,"0.82 µM [falling, full curve, poor fit]",–
Nc1nc(NCC2CCCO2)nc(Nc2ccc(Cl)cc2)c1[N+](=O)[O-] (centres undefined),49%,"4.61 µM [rising, full curve]","3.26 µM [rising, full curve]"
O=C(NCC1CCN(Cc2ccc(Cl)cc2)CC1)C1CCCN(c2ncnc3c2nc2n3CCCCC2)C1 (centres undefined),-5.66%,–,–
COc1cccc(Cn2c(OCC3CCCO3)nc3c2c(=O)n(C)c(=O)n3C)c1 (centres undefined),4.76%,"2.06 µM [rising, full curve, poor fit]",–
O=C(NCc1ccccn1)C1CCC(=O)N1C1CCCCC1 (centres undefined),15.2%,"29.1 µM [falling, single point]",–
Cc1cccc(N(CC(=O)Nc2ccccc2-c2ccccc2)S(=O)(=O)c2ccccc2)c1C,-1.66%,"29.1 µM [falling, single point]",–
Cc1ccc(CCc2nnc(SCC(=O)Nc3cccc(Cl)c3)n2-c2ccccc2)o1,-69.2%,"7.31 µM [falling, partial curve]","6.51 µM [falling, partial curve]"
CC(=O)Nc1ccc(N=Cc2c(O)ccc3ccccc23)cc1,-0.529%,–,–
CC(=O)c1cc2c(cc1NS(=O)(=O)c1ccc(C)cc1)OCCO2,-6.2%,"1.84 µM [rising, partial curve]",–
O=C(c1cccc(F)c1)N1CCN(C(=O)C2CC2)CC1,-20.5%,"0.00461 µM [falling, full curve, poor fit]","0.0058 µM [falling, full curve, poor fit]"
O=C1c2ccccc2C2=Nc3ccccc3SC(c3cccc(F)c3)C12 (centres undefined),-45.9%,"1.16 µM [rising, single point]","29.1 µM [falling, single point]"
COc1ccc(-c2c(C)c3cc(O)ccc3oc2=O)cc1,-23.3%,"18.4 µM [falling, single point]",–
Cc1cc(S(=O)(=O)Nc2ccc(C(=O)NCc3cccnc3)cc2)ccc1F,-24.8%,"6.51 µM [falling, single point]",–
Cc1ccc(CC2C(=O)N(c3ncccn3)C(=O)C2C)cc1 (centres undefined),-19.4%,"0.651 µM [falling, full curve, poor fit]","0.164 µM [falling, full curve, poor fit]"
